Measurements taken from US10945932B2, “Prebiotic oral care compositions containing carboxylic acids” (COLGATE-PALMOLIVE COMPANY, priority 2013, dated 2021).
For at least one compound, name, drawing or mass did not settle the structure.

Tested on: beneficial oral bacteria and pathogenic oral bacteria
Test: Metabolic activity, prebiotic effect over the whole panel
Type: cell-based
Details: threshold value of 2
Experimental: The extent of metabolic activity of the tested bacteria in the presence of the above-mentioned acids after 24 hours and 48 hours was investigated through a high throughput phenotype microarray system (PM) for microbial cells (Biolog Inc.). Each PM can contain up to 95 different biochemical compounds (e.g. organic acids) that may act as substrates for bacteria as well as one negative control, not containing the substrates. Microarray plates were used in which the different wells of each plate were pre-loaded (by the manufacturer, Biolog Inc.) with different organic acids to be tested. Each bacterial species was tested using a separate microarray plate. Thus, a single bacterial species was tested with a variety of organic acids on each particular plate. The microarrays are based on redox technology, using cell respiration as a universal reporter. […] The observation of this color change indicates which of the substrates improve the metabolic activity and health of the cells. […]
All plates were incubated in an anaerobic atmosphere at 37° C. Color changes were measured spectrophotometrically at 492 nm (Thermo Scientific Multiskan Ascent) at 24 hrs and 48 hrs using the same plate at both time points. […]

**Q.** For `COC(=O)CCC(=O)O` [Mono methyl succinate, mono methyl succinate], which “prebiotic effect (metabolic activity)” value (24 hrs) is on record?
**A.** The value was “exhibited prebiotic effects”.

**Q.** What about the “prebiotic effect (metabolic activity)” value (48 hrs) of the same compound?
**A.** Its value is “exhibited prebiotic effects”.
